The list does not hold the whole screen: it gathers tests that were run many times, whatever their T/C, doses with no T/C, and many T/C values between a quarter and a half above the control. Further doses and runs are listed elsewhere. T/C is the treated group as % of the vehicle group. Some doses have a count of surviving animals in place of a T/C: the source holds a T/C of zero for them, seemingly a mark for toxic or unscored doses. Some doses without a T/C left all or most animals alive at the check, yet need not have been tolerated: the source hardly ever lists a survival T/C far under the control, and the zero likely stands for such cases as well. Counts of survivors are from the toxicity check (mostly the fifth day) where no day follows; animals may have died later. Schedule codes are those of the source, taken here to give the interval after Q, in days (D) or hours (H), and the number of doses after X. Some schedule codes hold Z or #, which are not explained here. Some entries were tested several times; the results are listed from low to high. Some structures stand for samples that the source files as different forms (salt, stereo form or complex); doses refer to the form tested. Marks such as (2×) say how often a value occurs here. Where survival is the endpoint, the PubChem record calls one and a half times the control and up active, and a quarter to a half above the control has no call in these data; cut-offs in other NCI protocols can differ. Some T/C values are followed by the survivors on the day toxicity was checked, most often the fifth; without a count, all were alive then.
Tested on: L1210 leukemia ip in BDF1 mice, survival T/C
Test: NCI In Vivo Anticancer Drug Screen. Data for tumor model L1210 Leukemia (intraperitoneal) in B6D2F1 (BDF1) mice
Details: T/C endpoint: mean survival time, higher T/C = longer survival
[1] = dose: 150.0 mg/kg/injection, schedule: Q01DX001 (ip), vehicle: saline
[2] = dose: 300.0 mg/kg/injection, schedule: Q01DX001 (ip), vehicle: saline
[3] = dose: 100.0 mg/kg/injection, schedule: Q01DX009 (ip), vehicle: saline
[4] = dose: 200.0 mg/kg/injection, schedule: Q01DX001 (ip), vehicle: saline
[5] = dose: 400.0 mg/kg/injection, schedule: Q01DX001 (ip), vehicle: saline
[6] = dose: 400.0 mg/kg/injection, schedule: Q01DX009 (ip), vehicle: saline with Tween-80
[7] = dose: 200.0 mg/kg/injection, schedule: Q04DX003 (ip), vehicle: saline
[8] = dose: 400.0 mg/kg/injection, schedule: Q04DX003 (ip), vehicle: saline
[9] = dose: 100.0 mg/kg/injection, schedule: Q04DX003 (ip), vehicle: saline
[10] = dose: 2.0 mg/kg/injection, schedule: Q01DX001 (ip), vehicle: saline

O=NN(CCCl)C(=O)NC1C2CC3CC(C2)CC1C3 (stereo unspecified)
survivor count (dose: 375.0 mg/kg/injection, schedule: Q01DX001 (ip), vehicle: other): 6 of 10 | survivor count (dose: 500.0 mg/kg/injection, schedule: Q01DX001 (ip), vehicle: other): 8 of 10

ClC(Cl)[Si](Cl)(Cl)Cl
survivor count (dose: 75.0 mg/kg/injection, schedule: Q01DX001 (ip), vehicle: saline): 0 of 6 | survivor count [1]: 0 of 6 | survivor count [2]: 0 of 6

O=C(NOS(=O)(=O)O)c1ccccc1
survivor count [3]: 6 of 6 | survivor count [4]: 0 of 6 | survivor count [5]: 0 of 6

O=C(O)c1cccc2ccccc12
survivor count [6]: 0 of 6

Nc1nc(N)c2nc(CBr)cnc2n1
survivor count (dose: 50.0 mg/kg/injection, schedule: Q01DX009 (ip), vehicle: saline): 2 of 3 | survivor count [3]: 0 of 3 | survivor count (dose: 200.0 mg/kg/injection, schedule: Q01DX009 (ip), vehicle: saline): 0 of 3

NC(N)=N/N=C(/c1cccs1)C1CC1
survivor count (dose: 60.0 mg/kg/injection, schedule: Q01DX Z (oral), vehicle: methylcellulose (MC)): 3 of 6 | survivor count (dose: 250.0 mg/kg/injection, schedule: Q01DX Z (ip), vehicle: methylcellulose (MC)): 6 of 6 | survivor count (dose: 500.0 mg/kg/injection, schedule: Q01DX Z (ip), vehicle: methylcellulose (MC)): 0 of 6 | survivor count (dose: 750.0 mg/kg/injection, schedule: Q01DX Z (ip), vehicle: methylcellulose (MC)): 0 of 6

CSc1nc(F)nc2c1ncn2C1OC(CO)C(O)C1O (stereo unspecified)
survivor count [5]: 0 of 6

CCN(CC)c1ccc(/C=C/C=O)cc1
survivor count (dose: 400.0 mg/kg/injection, schedule: Q04DX003 (ip), vehicle: gum acacia): 1 of 6

CCN(CC)CC[n+]1ccccc1
survivor count (dose: 400.0 mg/kg/injection, schedule: Q04DX002 (ip), vehicle: saline): 0 of 3

CC(C)(C)OC(=O)NC(C(=O)O)C1=CCC=CC1 (stereo unspecified)
T/C (dose: 200.0 mg/kg/injection, schedule: Q04DX003 (ip), vehicle: Klucel (hydroxypropylcellulose) (HPC)): 125 % of control

CCC(C)C(CCCN1CCCCC1)(CNC(=O)CN(CC)CC)c1cccc2ccccc12 (stereo unspecified)
survivor count [7]: 3 of 6 | survivor count [8]: 0 of 6

CC(=O)N1Cc2cccn2Cc2cc3c(cc21)OCO3
survivor count (dose: 50.0 mg/kg/injection, schedule: Q04DX002 (ip), vehicle: Klucel (hydroxypropylcellulose) (HPC)): 3 of 3 | survivor count (dose: 100.0 mg/kg/injection, schedule: Q04DX002 (ip), vehicle: Klucel (hydroxypropylcellulose) (HPC)): 1 of 3

Cc1cc(C)cc(OCC2CNC(=O)O2)c1 (stereo unspecified)
survivor count [9]: 4 of 4

CC1(C)CC[N+]1(C)C
T/C (dose: 25.0 mg/kg/injection, schedule: Q04DX003 (ip), vehicle: saline): 127 % of control | survivor count [9]: 0 of 6 and 2 of 6 | survivor count (dose: 120.0 mg/kg/injection, schedule: Q04DX003 (ip), vehicle: saline): 1 of 6 | survivor count [7]: 0 of 6 (2×) | survivor count (dose: 240.0 mg/kg/injection, schedule: Q04DX003 (ip), vehicle: saline): 0 of 6 | survivor count [8]: 0 of 6 (2×)

CCc1ccc(/C(C#N)=C/c2ccc(N(C)C)cc2)cc1
survivor count (dose: 200.0 mg/kg/injection, schedule: Q01DX009 (ip), vehicle: Klucel (hydroxypropylcellulose) (HPC)): 6 of 6 | survivor count (dose: 400.0 mg/kg/injection, schedule: Q01DX009 (ip), vehicle: Klucel (hydroxypropylcellulose) (HPC)): 6 of 6

COc1nc(Cl)nc(Cl)c1Cl (tested in a mixture with another compound)
survivor count (dose: 200.0 mg/kg/injection, schedule: Q01DX009 (ip), vehicle: other): 0 of 3

O=C(Nc1ccc(NC2=NCCN2)cc1)c1cc(C(=O)Nc2ccc(NC3=NCCN3)cc2)cc([N+](=O)[O-])c1
survivor count (dose: 30.0 mg/kg/injection, schedule: Q01DX Z (ip), vehicle: methylcellulose (MC)): 0 of 6 | survivor count (dose: 60.0 mg/kg/injection, schedule: Q01DX Z (ip), vehicle: methylcellulose (MC)): 0 of 6 | survivor count (dose: 120.0 mg/kg/injection, schedule: Q01DX Z (ip), vehicle: methylcellulose (MC)): 0 of 6

CC(=O)c1ccc[n+](Cc2ccc3c(c2)OCO3)c1
survivor count (dose: 300.0 mg/kg/injection, schedule: Q01DX001 (ip), vehicle: carboxymethylcellulose (CMC)): 0 of 6

CC1=CCCC2(CCC3(C)CC32)C1(C)C (stereo unspecified)
survivor count (dose: 400.0 mg/kg/injection, schedule: Q01DX009 (ip), vehicle: acetone): 1 of 6

Cc1c2cc3c(cc2cc2c4cc5c(cc4cc[n+]12)OCO5)OCO3 (tested in a mixture with another compound)
survivor count (dose: 25.0 mg/kg/injection, schedule: Q01DX009 (ip), vehicle: saline): 5 of 6

O=Cc1c2ccccc2cc2ccccc12
T/C (dose: 45.0 mg/kg/injection, schedule: Q01DX015 (ip), vehicle: saline): 139 % of control

O=C(O)COc1c(Cl)c(Cl)c(Cl)c(Cl)c1Cl
survivor count (dose: 200.0 mg/kg/injection, schedule: Q01DX009 (ip), vehicle: saline with Tween-80): 0 of 6 | survivor count [6]: 0 of 6

Cn1ncc2c(N)nc(-c3ccccc3)nc21
survivor count (dose: 200.0 mg/kg/injection, schedule: Q04DX003 (ip), vehicle: other): 2 of 6 | survivor count (dose: 400.0 mg/kg/injection, schedule: Q04DX003 (ip), vehicle: other): 0 of 6

CO[C@H]1Nc2c(ccc(C)c2O)C(=O)N2C=C(/C=C/C(N)=O)C[C@@H]12
T/C (dose: 0.2 mg/kg/injection, schedule: Q01DX015 (ip), vehicle: saline): 125 % of control [5 of 6 alive] | survivor count (dose: 0.33 mg/kg/injection, schedule: Q04DX003 (ip), vehicle: saline with Tween-80): 2 of 6 | T/C (dose: 0.5 mg/kg/injection, schedule: Q01DX001 (ip), vehicle: saline): 125 and 138 % of control | survivor count (dose: 0.66 mg/kg/injection, schedule: Q04DX003 (ip), vehicle: saline with Tween-80): 3 of 6 | T/C (dose: 0.89 mg/kg/injection, schedule: Q01DX001 (ip), vehicle: saline): 145 % of control | T/C (dose: 0.9 mg/kg/injection, schedule: Q01DX001 (ip), vehicle: saline): 130 % of control | survivor count (dose: 1.0 mg/kg/injection, schedule: Q01DX015 (ip), vehicle: saline): 0 of 6 | survivor count (dose: 1.0 mg/kg/injection, schedule: Q04DX003 (ip), vehicle: saline with Tween-80): 5 of 6 | T/C (dose: 1.3 mg/kg/injection, schedule: Q01DX001 (ip), vehicle: saline): 134 % of control [3 of 4 alive] | survivor count (dose: 1.5 mg/kg/injection, schedule: Q04DX003 (ip), vehicle: saline with Tween-80): 2 of 6 | T/C [10]: 140, 142, 148 [5 of 6 alive], 151 % of control | survivor count [10]: 1 of 4 | survivor count (dose: 3.0 mg/kg/injection, schedule: Q01DX001 (ip), vehicle: saline): 1 of 6, 1 of 4, 2 of 4 | survivor count (dose: 4.0 mg/kg/injection, schedule: Q01DX001 (ip), vehicle: saline): 0 of 4 | survivor count (dose: 5.0 mg/kg/injection, schedule: Q01DX001 (ip), vehicle: saline): 0 of 4 | survivor count (dose: 8.0 mg/kg/injection, schedule: Q01DX001 (ip), vehicle: saline): 0 of 4 | survivor count (dose: 10.0 mg/kg/injection, schedule: Q01DX001 (ip), vehicle: saline): 0 of 4 | survivor count (dose: 20.0 mg/kg/injection, schedule: Q01DX001 (ip), vehicle: saline): 0 of 4 | survivor count (dose: 40.0 mg/kg/injection, schedule: Q01DX001 (ip), vehicle: saline): 0 of 4 | survivor count (dose: 80.0 mg/kg/injection, schedule: Q01DX001 (ip), vehicle: saline): 0 of 4 | survivor count (dose: 100.0 mg/kg/injection, schedule: Q01DX001 (ip), vehicle: saline): 0 of 4 | survivor count [4]: 0 of 4 | survivor count [5]: 0 of 4

O=C(O)C1CCC(CC2CC3CCC2C3)CC1 (stereo unspecified)
survivor count [6]: 0 of 6

COc1ccc2c(c1O)C13C=C(C)C(=O)CC1C(C2)N(C)CC3 (stereo unspecified)
survivor count [1]: 2 of 6 | survivor count [2]: 0 of 6

Source: PubChem BioAssay AID248 (DTP/NCI, 2004)
